The same purity stands for every peptide and may come from a single statement.

The first data set can be described thus: general procedure: Fmoc solid-phase peptide synthesis. The following applies: conjugation step, analytical HPLC combined with mass spectrometry.
Take “acetyl-QGQSGQCISPRGCPDGPYVMY-peg-NleTPRSFL-(diamino proprionic)-PEG24-NHS”: the “final HPLC purity” value is more than 90% purity. On the same count and under the same terms, the result for “acetyl-QGQSGQCISPRGCPDGPYVMY-peg-NleTPRSFL-(diamino proprionic)-PEG24-maleimide” reads more than 90% purity; that for “acetyl-HIHDDLLRYYGW-peg-NleTPRSFL-(diamino proprionic)-PEG24-maleimide”, more than 90% purity; that for “acetyl-HIHDDLLRYYGW-peg-NleTPRSFL-(diamino proprionic)-PEG24-NHS”, more than 90% purity. On the same count and under the same terms, the result for “acetyl-GSGSGSQLGPYELWELSHGSGS-PEG-NleTPRSFL-(diamino proprionic)-PEG24-NHS” reads more than 90% purity; that for “acetyl-GSGSGSQLGPYELWELSHGSGS-PEG-NleTPRSFL-(diamino proprionic)-PEG24-maleimide”, more than 90% purity.

The same data set, now with this note: whole synthesis, analytical HPLC combined with mass spectrometry.
On to “acetyl-(GSGSGSQLGPYELWELSHGSGS)-PEG6-(Nle)TPRSFL-(diamino proprionic (Dap))-amide”, for which the “final HPLC purity” value is reported as more than 90% purity.

For the substance “acetyl-QGQSGQCISPRGCPDGPYVMY-PEG6-(Nle)TPRSFL-(diamino proprionic)-amide”, the “final HPLC purity” value is given as more than 90% purity. The same measure, in the same setting: the value for “acetyl-(HIHDDLLRYYGW)-PEG6-(Nle)TPRSFL-(diamino proprionic (Dap))-amide” was more than 90% purity.

The values above are taken from patent US20220288223A1 (The Regents of the University of California, priority 2019, published 2022).
